The exact form of at least one protein or probe is not confirmed. For some assays here: Negatives hold for the conditions tested. For some assays here: At least one verdict rests on a figure or table, not on a statement of the authors.
How the values were obtained:
[1] = system: DNMT1 WT (aa 351-1616) + H3Ub2 (isopeptide-linked ubiquitinated H3 tail); test: cryo-EM (2.2 A, CXXC-disordered); conditions: covalent Cys1226-5fC complex, SAH, Zn; 5-methylcytosine at position 6 of strand 1; 5-fluorocytosine at position 6 of strand 2; recombinant protein; protein details: N-terminal His10-HRV3C tag, cleaved
[2] = system: DNMT1 WT (aa 351-1616) + H3Ub2 (isopeptide-linked ubiquitinated H3 tail); test: size exclusion chromatography; conditions: covalent 5fC complex; 5-methylcytosine at position 6 of strand 1; 5-fluorocytosine at position 6 of strand 2; recombinant protein; protein details: N-terminal His10-HRV3C tag, cleaved
[3] = system: DNMT1 WT (aa 351-1616) + H3Ub2 (isopeptide-linked ubiquitinated H3 tail); test: cryo-EM (2.5 A, CXXC-ordered); conditions: covalent Cys1226-5fC complex, SAH, Zn; 5-methylcytosine at position 6 of strand 1; 5-fluorocytosine at position 6 of strand 2; recombinant protein; protein details: N-terminal His10-HRV3C tag, cleaved
[4] = system: DNMT1 F631A/F632A (FF/AA, aa 351-1616) + H3Ub2S-S (disulfide-linked ubiquitinated H3 analog); test: pull-down; conditions: SAH equimolar, H3Ub2S-S 2-equimolar excess; 5-methylcytosine at position 10 of strand 1; Pull-down: 20 mM Tris-HCl pH 7.5, 150 mM NaCl, 10% glycerol, 0.05% NP-40, 4 °C, 2 h; recombinant protein; protein details: N-terminal His10-HRV3C tag, cleaved; label: 5' biotin on strand 2
[5] = system: DNMT1 WT (aa 351-1616) + H3Ub2S-S (disulfide-linked ubiquitinated H3 analog); test: pull-down; conditions: SAH equimolar, H3Ub2S-S 2-equimolar excess; 5-methylcytosine at position 10 of strand 1; Pull-down: 20 mM Tris-HCl pH 7.5, 150 mM NaCl, 10% glycerol, 0.05% NP-40, 4 °C, 2 h; recombinant protein; protein details: N-terminal His10-HRV3C tag, cleaved; label: 5' biotin on strand 2

Sequence	binding result [1]	binding result [2]	binding result [3]	binding result [4]	binding result [5]
ACTTACGGAAGG (double strand) [DNAmCG/fCG 12-mer (cryo-EM)]	binds	binds	binds		
CAGGCAATCCGGTAGATCGCA / TTGCGATCTACCGGATTGCCTG [21-bp biotinylated hemimethylated DNA (pull-down)]				no binding	binds

— PMC9681727
